Experimental data as given in publication PMC8901441.
Results are given in words; binding and its absence hold for the method and conditions named. Binding seen in cells or lysates may run through a third protein. These calls come from enrichment with a bait or labelling near it, and not all partners need be listed.

Molecular target: FLAG-APEX2-BAX, Q07812
Experiment: proximity labelling; APEX2 fusion in HeLa cells, apoptosis induced with 1 uM staurosporine for 3 h; biotin-phenol and H2O2; streptavidin beads from RIPA lysate; immunoblot for BAX and BAK
Details: remark: other sources report otherwise

- binding: binds
B1: BAK (endogenous, HeLa cells), Q16611 1-211 (protein)
chain: MASGQGPGPPRQECGEPALPSASEEQVAQDTEEVFRSYVFYRHQQEQEAEGVAAPADPEMVTLPLQPSSTMGQVGRQLAIIGDDINRRYDSEFQTMLQHLQPTAENAYEYFTKIATSLFESGINWGRVVALLGFGYRLALHVYQHGLTGFLGQVTRFVVDFMLHHCIARWIAQRGGWVAALNLGNGPILNVLVVLGVVLLGQFVVRRFFKS
